Source: patent US5871946A, “Method for determining activity of enzymes in metabolically active whole cells” (priority 1995, dated 1999)
At least one read-out could not be matched to a standard name with certainty.

How the values were obtained:
[1] = tested on: LYMPHOCYTES; experiment: Disease to normal ratio of enzyme activity, lymphocytes (Table 5); type: cell-based, human
From the text: (§1) A normal in house adult donor pool was drawn, recording sex and determining that no known disease state was present at the time of sample draw. Criteria for rejecting samples included patients under medication, patients with infection or inflammation of any type, colds and flu as well as any known medical illness such as cancer, heart ailment and high blood pressure. A donor list of 75 patients has been developed and a mean and 2 sd range established. A subgroup of "super normals" was developed from this list by examining the 75 patients to determine which group falls closest to the mean for all enzymes in all cell types tested. These patients were used as the "wellness index" or best group of "normalcy" patients. If a study required the use of children or newborns then this same format was used to develop a data base for these age groups.

[2] = tested on: MONOCYTES; experiment: Disease to normal ratio of enzyme activity, monocytes (Table 5); type: cell-based, human
From the text: as §1

[3] = Inflam. Bowel Dis., monocytes section

| Structure (SMILES) | Ratio of disease to normal ([1]; Inflam. Bowel Dis.) | Ratio of disease to normal ([1]; Kawasaki's) | Ratio of disease to normal ([1]; Rheumatic Fever) | Ratio of disease to normal ([2]; Dermatomyositis, monocytes) | Ratio of disease to normal [2, 3] | Ratio of disease to normal ([2]; Kawasaki's, monocytes) | Ratio of disease to normal ([2]; Rheumatic Fever, monocytes) | Ratio of disease to normal ([1]; Dermatomyositis) | Ratio of disease to normal ([1]; JRA) | Ratio of disease to normal ([1]; Lupus) | Ratio of disease to normal ([2]; Lupus, monocytes) |
| --- | --- | --- | --- | --- | --- | --- | --- | --- | --- | --- | --- |
| CC(=O)Oc1ccc2c(c1)Oc1cc(OC(C)=O)ccc1C21OC(=O)c2ccccc21 [FDA, fluorescein diacetate, reference compound] | 0.87 | 0.28 | 0.90 | 0.94 | 0.98 | 0.41 | 0.63 | – | – | – | – |
| O=C1OC2(c3ccc(OP(=O)(O)O)cc3Oc3cc(OP(=O)(O)O)ccc32)c2ccccc21 [DPO4, (PO4)2 fluorescein] | 0.87 | 0.62 | 0.77 | 0.79 | 1.30 | 0.51 | – | 0.64 | 0.82 | 0.90 | 0.69 |
